Assay results reported in US4925943A, “2-(2-aminobenzyl or 2-nitrobenzyl)-1,2,3,4-tetrahydroisoquinoline derivatives” (priority 1986, dated 1990).

The compounds below were run on α2 adrenergic receptors of rat cerebral cortex (assay: [3H] yohimbine binding, rat cerebral cortex (α2)). Details: ratio of Ki, [3H] yohimbine / [3H] prazosine sites.
Set-up: species or system rat (male Wistar)
Protocol: The preparation of the cerebral cortex homogenates is made starting from male Wistar rats, age 12 weeks. After decapitation, the brains are rapidly removed and dissected. The tissues are homogenized with the aid of an ultra-turrax in 50 mM of a pH 7.5 Tris-HCl buffer and centrifuged at 40,000 g for ten minutes. The centrifugate is dissolved in buffer and recentrifuged in the same way. All of the operations are carried out at a temperature less than 4° C. The final centrifugate is homogenized in the incubation buffer maintained in melting ice (tris-HCl 50 mM pH 7.5) so as to obtain a final dilution of the cortical tissue of 1/100 (by volume), which corresponds to about 0.5 mg of protein per ml.
These filters are rinsed 4 times with 5 ml of incubation buffer preserved in ice. The radioactivity retained on the filters is counted by liquid scintillation. The non-specific fixation of the radioactive ligand is evaluated in the presence of 10 μM phentolamine.
Starting from the inhibition curves for the specific fixation of a ligand to its receptor by increasing quantities of a non-radioactive product, the inhibition constant (Ki) of this product is determined.
For `COc1ccc2c(c1)CCN(Cc1ccc(Cl)cc1N)C2` [ISK31, 2-(2-amino-4-chlorobenzyl)-6-methoxy-1,2,3,4-tetrahydroisoquinoline], the “Ki α2 /Ki α1” value was 11,6. In the case of `COc1ccc2c(c1)CCN(Cc1cc(OC)c(OC)cc1N)C2` [ISK7, 2-(2-amino-4,5-dimethoxybenzyl)-6-methoxy-1,2,3,4-tetrahydroisoquinoline], the “Ki α2 /Ki α1” value is reported as 0,06. In the case of `COc1cc(N)c(CN2CCc3cc(OC)c(OC)cc3C2)cc1OC` [ISK4, 2-(2-amino-4,5-dimethoxybenzyl)-6,7-dimethoxy-1,2,3,4-tetrahydroisoquinoline], the “Ki α2 /Ki α1” value is reported as 0,28. In the case of `COc1cc(N)c(CN2CCc3ccccc3C2)cc1OC` [ISK18, 2-(2-amino-4,5-dimethoxybenzyl)-1,2,3,4-tetrahydroisoquinoline], the “Ki α2 /Ki α1” value is reported as 0,07. In the case of `COc1cc2c(cc1OC)CN(Cc1ccccc1N)CC2` [ISK17, 2-(2-aminobenzyl)-6,7-dimethoxy-1,2,3,4-tetrahydroisoquinoline], the “Ki α2 /Ki α1” value is reported as 0,50.
